These are yes or no findings as the source states them, for the method shown. Binding seen in cells or lysates may run through a third protein. Binding can be weak; no strength is given. Tags and fused reporters may be left off the sequences shown.
Experiments:
[1] = target: T1, Myc-SMC6 (human) (UniProt Q96SB8); assay: co-IP; GFP-Trap (Nano-Trap magnetic agarose, Chromotek) from HEK293 cells co-transfected with GFP-SIMC1 (WT or mutant; bait), Myc-SMC6 and FLAG-SLF2^CTD (WT, mut1, mut2 or 635–1160); western blot
T1 sequence: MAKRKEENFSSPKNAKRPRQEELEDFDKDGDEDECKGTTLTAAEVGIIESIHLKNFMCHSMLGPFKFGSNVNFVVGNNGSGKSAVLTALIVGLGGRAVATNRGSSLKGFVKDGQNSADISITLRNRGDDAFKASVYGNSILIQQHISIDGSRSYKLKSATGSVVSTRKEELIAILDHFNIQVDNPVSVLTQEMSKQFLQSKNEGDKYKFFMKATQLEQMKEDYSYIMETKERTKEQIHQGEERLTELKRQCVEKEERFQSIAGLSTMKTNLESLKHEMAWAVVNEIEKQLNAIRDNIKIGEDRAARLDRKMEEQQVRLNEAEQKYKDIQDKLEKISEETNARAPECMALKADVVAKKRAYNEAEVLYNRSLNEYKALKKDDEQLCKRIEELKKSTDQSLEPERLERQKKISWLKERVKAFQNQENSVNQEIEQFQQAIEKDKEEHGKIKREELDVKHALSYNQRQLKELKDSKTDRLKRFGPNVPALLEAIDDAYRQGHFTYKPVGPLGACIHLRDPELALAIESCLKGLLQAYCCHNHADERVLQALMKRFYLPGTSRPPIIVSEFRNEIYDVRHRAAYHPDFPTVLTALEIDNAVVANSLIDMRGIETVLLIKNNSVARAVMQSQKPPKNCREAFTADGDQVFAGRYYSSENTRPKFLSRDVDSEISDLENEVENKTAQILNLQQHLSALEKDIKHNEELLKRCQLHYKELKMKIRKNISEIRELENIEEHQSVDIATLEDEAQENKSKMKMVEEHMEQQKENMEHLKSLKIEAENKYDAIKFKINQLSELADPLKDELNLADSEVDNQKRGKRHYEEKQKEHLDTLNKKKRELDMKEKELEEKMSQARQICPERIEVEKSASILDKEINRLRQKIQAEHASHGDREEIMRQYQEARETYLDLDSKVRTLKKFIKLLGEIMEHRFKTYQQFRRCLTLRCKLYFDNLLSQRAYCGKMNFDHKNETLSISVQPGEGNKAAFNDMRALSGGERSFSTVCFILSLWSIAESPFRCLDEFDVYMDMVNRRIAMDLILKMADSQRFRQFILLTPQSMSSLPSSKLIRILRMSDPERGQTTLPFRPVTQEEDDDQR

[2] = target: T2, GFP-SMC6 (human) (UniProt Q96SB8); assay: co-IP; GFP-Trap (Nano-Trap magnetic agarose, Chromotek) from HEK293 cells co-transfected with GFP-SMC6 (WT or mutant; bait), 2Myc-SIMC1 and FLAG-SLF2^CTD; western blot with anti-GFP, FLAG, Myc
T2 sequence: T1 sequence

Substance | binding [1] | binding [2]
FLAG-SLF2^635-1160 (human) (domain or fragment) | binds | –
FLAG-SLF2^CTD (635–1173) mut1 (human) (domain or fragment) | no binding | –
FLAG-tagged C-terminal domain (CTD) of SLF2 (residues 635–1173) (human) (domain or fragment) | binds | binds

Source: paper PMC12656486
